Test results: publication PMC9010301
These are yes or no findings as the source states them, for the method shown. Some results given as binding are weak or reduced against the parent protein; the word gives no strength.

T1: Ddc1 (subunit of the S.c. 9–1-1 clamp) (S. cerevisiae) (UniProt Q08949)
T1 sequence: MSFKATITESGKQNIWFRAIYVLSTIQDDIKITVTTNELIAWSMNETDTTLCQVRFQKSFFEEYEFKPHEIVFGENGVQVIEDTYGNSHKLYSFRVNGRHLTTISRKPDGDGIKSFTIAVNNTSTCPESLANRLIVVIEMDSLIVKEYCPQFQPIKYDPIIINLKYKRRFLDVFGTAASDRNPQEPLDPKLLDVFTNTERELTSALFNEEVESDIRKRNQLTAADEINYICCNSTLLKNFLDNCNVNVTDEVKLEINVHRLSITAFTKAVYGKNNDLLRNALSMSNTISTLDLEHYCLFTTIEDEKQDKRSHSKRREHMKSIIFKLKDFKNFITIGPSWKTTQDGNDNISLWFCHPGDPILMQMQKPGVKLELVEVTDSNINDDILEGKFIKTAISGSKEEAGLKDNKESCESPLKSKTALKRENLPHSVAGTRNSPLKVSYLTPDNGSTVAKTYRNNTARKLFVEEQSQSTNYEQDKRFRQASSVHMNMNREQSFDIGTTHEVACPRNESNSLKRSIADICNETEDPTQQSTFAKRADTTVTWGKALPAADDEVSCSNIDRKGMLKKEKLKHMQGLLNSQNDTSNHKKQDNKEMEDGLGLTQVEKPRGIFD

T2: Rfc4 (subunit of S.c. Rad24-RFC) (S. cerevisiae) (UniProt P40339)
T2 sequence: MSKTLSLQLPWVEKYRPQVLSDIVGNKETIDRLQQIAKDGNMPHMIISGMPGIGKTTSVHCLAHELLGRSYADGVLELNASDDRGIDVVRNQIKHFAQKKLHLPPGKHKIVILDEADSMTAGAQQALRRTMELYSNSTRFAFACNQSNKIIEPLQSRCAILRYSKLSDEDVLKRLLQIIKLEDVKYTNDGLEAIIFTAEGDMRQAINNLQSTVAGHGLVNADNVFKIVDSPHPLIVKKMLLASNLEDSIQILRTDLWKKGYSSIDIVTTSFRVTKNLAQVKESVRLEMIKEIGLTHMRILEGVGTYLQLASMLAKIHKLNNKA

T3: Rad17 (subunit of the S.c. 9–1-1 clamp) (S. cerevisiae) (UniProt P48581)
T3 sequence: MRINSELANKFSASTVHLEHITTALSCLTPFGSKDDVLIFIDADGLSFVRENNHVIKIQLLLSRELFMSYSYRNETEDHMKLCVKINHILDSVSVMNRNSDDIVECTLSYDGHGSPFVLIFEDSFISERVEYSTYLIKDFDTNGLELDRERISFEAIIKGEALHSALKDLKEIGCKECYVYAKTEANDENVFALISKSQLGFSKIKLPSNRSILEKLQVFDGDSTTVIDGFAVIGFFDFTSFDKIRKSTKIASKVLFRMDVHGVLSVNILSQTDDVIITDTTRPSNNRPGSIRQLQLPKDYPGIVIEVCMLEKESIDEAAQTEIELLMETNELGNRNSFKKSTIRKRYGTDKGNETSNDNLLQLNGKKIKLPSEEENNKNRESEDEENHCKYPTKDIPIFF

T4: Rfc3 (subunit of S.c. Rad24-RFC) (S. cerevisiae) (UniProt P38629)
T4 sequence: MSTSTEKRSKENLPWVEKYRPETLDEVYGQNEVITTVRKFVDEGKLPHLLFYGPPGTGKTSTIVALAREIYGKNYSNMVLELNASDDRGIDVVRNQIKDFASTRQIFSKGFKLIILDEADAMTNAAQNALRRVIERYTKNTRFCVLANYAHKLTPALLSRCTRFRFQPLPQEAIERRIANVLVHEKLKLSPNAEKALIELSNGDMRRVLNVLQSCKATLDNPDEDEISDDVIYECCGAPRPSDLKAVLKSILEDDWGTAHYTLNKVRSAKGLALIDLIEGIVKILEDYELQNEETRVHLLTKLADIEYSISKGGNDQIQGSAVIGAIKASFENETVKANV

T5: Rfc2 (subunit of S.c. Rad24-RFC) (S. cerevisiae) (UniProt P40348)
T5 sequence: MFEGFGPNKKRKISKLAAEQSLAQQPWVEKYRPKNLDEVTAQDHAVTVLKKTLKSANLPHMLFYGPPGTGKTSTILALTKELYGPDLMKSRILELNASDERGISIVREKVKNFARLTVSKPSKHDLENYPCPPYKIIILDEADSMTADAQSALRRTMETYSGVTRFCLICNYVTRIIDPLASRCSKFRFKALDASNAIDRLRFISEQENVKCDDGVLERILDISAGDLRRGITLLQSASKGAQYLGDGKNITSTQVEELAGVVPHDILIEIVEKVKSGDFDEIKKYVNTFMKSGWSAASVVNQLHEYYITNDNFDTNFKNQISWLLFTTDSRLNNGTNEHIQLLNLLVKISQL

T6: Rfc5 (subunit of S.c. Rad24-RFC) (S. cerevisiae) (UniProt P38251)
T6 sequence: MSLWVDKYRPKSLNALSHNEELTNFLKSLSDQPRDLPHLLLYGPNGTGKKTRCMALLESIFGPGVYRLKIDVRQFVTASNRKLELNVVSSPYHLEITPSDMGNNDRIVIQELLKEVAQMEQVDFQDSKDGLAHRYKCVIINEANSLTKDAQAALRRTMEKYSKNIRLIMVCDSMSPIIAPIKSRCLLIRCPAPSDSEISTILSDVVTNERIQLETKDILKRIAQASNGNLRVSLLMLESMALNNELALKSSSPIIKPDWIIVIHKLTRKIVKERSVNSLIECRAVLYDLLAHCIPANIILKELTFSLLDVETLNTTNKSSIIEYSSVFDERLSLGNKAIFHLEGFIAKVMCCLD

B1: Rad24 (subunit of S.c. Rad24-RFC) (protein, UniProt P32641 1-659)
chain: MDSTNLNKRPLLQYSLSSLGSQITKWSSSRPTSPVRKARSTENDFLSKQDTSSILPSINDDGGEQWYEKFKPNCLEQVAIHKRKLKDVQEALDAMFLPNAKHRILLLSGPSGCSKSTVIKELSKILVPKYRQNSNGTSFRSTPNEHKVTEFRGDCIVNDLPQMESFSEFLKGARYLVMSNLSLILIEDLPNVFHIDTRRRFQQLILQWLYSSEPLLPPLVICITECEIPENDNNYRKFGIDYTFSAETIMNKEILMHPRLKRIKFNPINSTLLKKHLKFICVQNMKMLKEKNKWNKRQEVIDYIAQETGDIRSAITTLQFWATSSGSLPISTRESTISYFHAIGKVIHGSHSTNNDNEMINNLFENSNNLLSKEDFKLGILENYNTFNKGEFSISDASSIVDCLSECDNMNGLPESNEYGLREVRKTFRNISKQGHNHGTVYFPREWKVRKLQNSFKVQAEDWLNVSLYKYNAVHSFRNITLEFGYYAPLIRKCQSYKKKYILYYLKNLPSGSSGPKQTMDKFSDIMKVENGIDVVDRIGGPIEALSVEDGLAPLMDNDSNNCDHLEDQKKERDRRLRMLIDQYERNVMMANDDLEDEETSFNDDPIVDSDSDNSNNIGNETFGRSDEDESLCEILSQRQPRKAPVISESLSDSDLEIL
B2: Rfc4 (subunit of S.c. Rad24-RFC) (protein, UniProt P40339 1-323)
chain: T2 sequence
B3: Rfc3 (subunit of S.c. Rad24-RFC) (protein, UniProt P38629 1-340)
chain: T4 sequence
B4: Rfc2 (subunit of S.c. Rad24-RFC) (protein, UniProt P40348 1-353)
chain: T5 sequence
B5: Ddc1 (subunit of the S.c. 9–1-1 clamp) (protein, UniProt Q08949 1-612)
chain: T1 sequence

Legend:
Assay in all cases: cryo-EM structure; purified Rad24-RFC 1.8 μM, 9–1-1 clamp 2.2 μM, double tailed DNA (5′- and 3′-recessed junctions) 2.7 μM, 0.5 mM ATPγS, 5 mM MgAcetate; ice-water bath 30 min; two conformations (clamp closed, clamp open) at 3.2 Å; both purified
[1] = target: T1, Ddc1 (subunit of the S.c. 9–1-1 clamp) (S. cerevisiae)
[2] = target: T2, Rfc4 (subunit of S.c. Rad24-RFC) (S. cerevisiae)
[3] = target: T3, Rad17 (subunit of the S.c. 9–1-1 clamp) (S. cerevisiae)
[4] = target: T4, Rfc3 (subunit of S.c. Rad24-RFC) (S. cerevisiae)
[5] = target: T5, Rfc2 (subunit of S.c. Rad24-RFC) (S. cerevisiae)
[6] = target: T6, Rfc5 (subunit of S.c. Rad24-RFC) (S. cerevisiae)

Binder	binding [1]	binding [3]	other results
B1	binds	–	binding [2]: binds
B2	–	binds	binding [4]: binds
B3	–	binds	binding [5]: binds
B4	binds	–	binding [6]: binds
B5	–	binds	–
